Data taken from publication PMC6711745.
These are yes or no findings as the source states them, for the method shown. In cells and extracts the contact can be indirect. Some binding calls cover weakened binding; strength is not graded here.

Molecular target: T1, NKX2-1 (mouse (endogenous in MLE-12)) (UniProt P50220)
T1 sequence: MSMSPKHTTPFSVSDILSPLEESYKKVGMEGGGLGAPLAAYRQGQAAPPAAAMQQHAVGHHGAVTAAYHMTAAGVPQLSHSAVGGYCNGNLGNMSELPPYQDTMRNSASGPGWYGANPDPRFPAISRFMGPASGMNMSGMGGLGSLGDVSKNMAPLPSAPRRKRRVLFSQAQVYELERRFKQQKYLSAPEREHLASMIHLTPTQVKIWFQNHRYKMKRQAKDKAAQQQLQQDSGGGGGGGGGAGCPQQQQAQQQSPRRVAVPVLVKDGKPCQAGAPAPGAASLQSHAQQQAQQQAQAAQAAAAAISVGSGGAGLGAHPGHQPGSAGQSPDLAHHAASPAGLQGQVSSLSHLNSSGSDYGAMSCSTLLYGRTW
Assay: co-IP; endogenous proteins in cleared MLE-12 lysate (20 mM Tris HCl pH 8, 137 mM NaCl, 0.1% Nonidet-P40); 10 ug antibody (anti-PGC1α 1F3.9 or anti-NKX2-1 AB76013) or control IgG on Protein G Dynabeads, 30 min at four degrees; eluates immunoblotted; n = 3

binding: binds
B1: PGC1α (protein, UniProt O70343 1-797)
chain: MAWDMCSQDSVWSDIECAALVGEDQPLCPDLPELDLSELDVNDLDTDSFLGGLKWCSDQSEIISNQYNNEPANIFEKIDEENEANLLAVLTETLDSLPVDEDGLPSFDALTDGAVTTDNEASPSSMPDGTPPPQEAEEPSLLKKLLLAPANTQLSYNECSGLSTQNHAANHTHRIRTNPAIVKTENSWSNKAKSICQQQKPQRRPCSELLKYLTTNDDPPHTKPTENRNSSRDKCASKKKSHTQPQSQHAQAKPTTLSLPLTPESPNDPKGSPFENKTIERTLSVELSGTAGLTPPTTPPHKANQDNPFKASPKLKPSCKTVVPPPTKRARYSECSGTQGSHSTKKGPEQSELYAQLSKSSGLSRGHEERKTKRPSLRLFGDHDYCQSLNSKTDILINISQELQDSRQLDFKDASCDWQGHICSSTDSGQCYLRETLEASKQVSPCSTRKQLQDQEIRAELNKHFGHPCQAVFDDKSDKTSELRDGDFSNEQFSKLPVFINSGLAMDGLFDDSEDESDKLSYPWDGTQPYSLFDVSPSCSSFNSPCRDSVSPPKSLFSQRPQRMRSRSRSFSRHRSCSRSPYSRSRSRSPGSRSSSRSCYYYESSHYRHRTHRNSPLYVRSRSRSPYSRRPRYDSYEAYEHERLKRDEYRKEHEKRESERAKQRERQKQKAIEERRVIYVGKIRPDTTRTELRDRFEVFGEIEECTVNLRDDGDSYGFITYRYTCDAFAALENGYTLRRSNETDFELYFCGRKQFFKSNYADLDTNSDDFDPASTKSKYDSLDFDSLLKEAQRSLRR
